Assay results published in patent US20180230218A1.
No constants are given. Whether binding was seen depends on the method and setting. Some results given as binding are weak or reduced against the parent protein; the word gives no strength. Blank lines part the entries; values can stand above or below the binder they belong to.

Sequences of proteins named here, by UniProt entry; tags and fusion partners are left off. Residues count along the entry.
UniProt P08581, residues 25-932: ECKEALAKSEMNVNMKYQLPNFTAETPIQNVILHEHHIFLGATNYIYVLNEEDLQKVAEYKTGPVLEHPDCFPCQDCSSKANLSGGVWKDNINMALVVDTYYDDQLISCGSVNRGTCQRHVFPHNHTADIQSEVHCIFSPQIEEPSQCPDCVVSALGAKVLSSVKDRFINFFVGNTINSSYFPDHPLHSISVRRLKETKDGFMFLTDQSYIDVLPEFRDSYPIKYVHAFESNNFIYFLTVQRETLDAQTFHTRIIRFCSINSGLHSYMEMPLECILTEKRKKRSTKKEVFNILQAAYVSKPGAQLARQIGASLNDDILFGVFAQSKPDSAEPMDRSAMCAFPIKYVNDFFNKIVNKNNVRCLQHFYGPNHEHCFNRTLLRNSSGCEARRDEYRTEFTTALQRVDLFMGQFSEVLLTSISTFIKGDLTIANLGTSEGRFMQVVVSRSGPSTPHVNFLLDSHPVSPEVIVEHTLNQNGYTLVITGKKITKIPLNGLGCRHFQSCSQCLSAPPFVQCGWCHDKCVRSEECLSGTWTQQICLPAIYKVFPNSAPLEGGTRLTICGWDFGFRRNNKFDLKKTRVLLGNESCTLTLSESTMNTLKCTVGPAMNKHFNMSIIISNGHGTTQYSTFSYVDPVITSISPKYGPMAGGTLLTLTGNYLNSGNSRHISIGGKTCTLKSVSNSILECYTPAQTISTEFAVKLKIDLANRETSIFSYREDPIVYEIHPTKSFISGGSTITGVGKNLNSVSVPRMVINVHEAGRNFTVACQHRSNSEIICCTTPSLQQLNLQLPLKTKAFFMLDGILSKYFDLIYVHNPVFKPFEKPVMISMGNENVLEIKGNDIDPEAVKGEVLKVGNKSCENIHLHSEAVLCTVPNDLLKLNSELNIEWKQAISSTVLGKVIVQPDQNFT

Target: Human cMet-ECD-his (human) (UniProt P08581)
Assay: BLI (ForteBio)

binding: binds
B1: hucMet22Gv2.2 (antibody, V domains shown)
VH: QVQLVQSGAEVKKPGASVKVSCKASGYTFTDYNMDWVRQAPGQRLEWIGDLNPNNGATIYNQKFKGRATLTVDMSASTAYMELSSLRSEDTAVYYCARGNYYGNYYYLMDYWGQGTSVTVSS
VL: DIQMTQSPSSLSASVGDRVTITCRASENIYSTLAWYQQKPGKAPKLLVYAATNLADGVPSRFSGSGSGTDYTLTISSLQPEDFATYYCQHFWGTPYTFGQGTKVEIKR

binding: binds
B2: hucMet27v1.2 (antibody, human IgG1, kappa, V domains shown)
VH: EVQLVESGGGLVQPGGSLRLSCAASGFTFSSYDMSWVRQTPGKGLELVATINSNGVSIYYPDSVKGRFTISRDIAKNTLYLQMSSLRAEDTAMYYCAREEITTEMDYWGQGTSVTVSS
VL: DIVLTQSPASLAVSPGQRATISCRASESVDSYGNSFIHWYQQKPGQPPKLLIYRASNLESGIPARFSGSGSRTDFTLTINPVEANDVATYYCQQSNEEPLTFGGGTKLELKR
